Reference: the supplement of paper PMC8104966
Some of the results follow. This data set is noisy: repeats of one test often differ as much as different tests do.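 Fusion between ACE2-bearing and full-length-spike-bearing U2OS cells was measured by imaging as the percentage of nuclei with both cell types' fluorescent markers. An inhibitory hit is a non-toxic compound whose fusion z-score is below -3, more than three standard deviations beneath the plate's DMSO wells.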

Test system: U2OS ACE2 x SARS-CoV-2 spike co-culture
Test: cell-cell fusion (fraction fused) z-score vs plate DMSO control; higher = more fusion
Details: 30 µM; 5 h; toxicity class: non-toxic, passed QC

Row | Compound | cell-cell fusion (z-score)
1 | N.N.[Cl][Pt][Cl] [Cisplatin] | inactive: 1.81
2 | OCc1ccccn1 | inactive: 0.434
3 | O=C(NCCCN1CCOCC1)c1ccc(Cl)cc1 | inactive: 2.13
4 | CNS(=O)(=O)CCc1ccc2[nH]cc(C3CCN(C)CC3)c2c1.Cl [Naratriptan hydrochloride] | inactive: 1.83
5 | O=C(OC[C@H]1O[C@@H](OC(=O)c2cc(O)c(O)c(OC(=O)c3cc(O)c(O)c(O)c3)c2)[C@H](OC(=O)c2cc(O)c(O)c(OC(=O)c3cc(O)c(O)c(O)c3)c2)[C@@H](OC(=O)c2cc(O)c(O)c(OC(=O)c3cc(O)c(O)c(O)c3)c2)[C@@H]1OC(=O)c1cc(O)c(O)c(OC(=O)c2cc(O)c(O)c(O)c2)c1)c1cc(O)c(O)c(OC(=O)c2cc(O)c(O)c(O)c2)c1 [Tannic acid] | inactive: 1.05
6 | C[N+](C)(C)CCOC(=O)CCC(=O)OCC[N+](C)(C)C.O.O.[Cl-].[Cl-] [Succinylcholine Chloride Dihydrate] | inactive: 2.06
7 | O=C1CC[C@@H](C(=O)O)N1 | inactive: 2.77
8 | O=c1c(O)cccc2ccc(O)c(O)c12 | inactive: 0.419
9 | CC(=O)SCC(Cc1ccccc1)C(=O)NCC(=O)OCc1ccccc1 (stereo not given) | inactive: 1.96
10 | COc1cc2ncnc(Nc3ccc(Oc4ccccc4)cc3)c2cc1OC | inactive: 1.9
11 | CCOc1cc(C=O)ccc1O | inactive: -0.0994
12 | CC1(C)O[C@@H]2CC3C4CCC5=CC(=O)C=C[C@]5(C)[C@@]4(F)[C@@H](O)C[C@]3(C)[C@]2(C(=O)CO)O1 (stereo not given in full) | inactive: -0.992
13 | CCS(=O)(=O)N1CC(CC#N)(n2cc(-c3ncnc4[nH]ccc34)cn2)C1 [Baricitinib] | inactive: -0.422
14 | COC(=O)Nc1nc2ccc(Sc3ccccc3)cc2[nH]1 | inactive: 3.23
15 | CC(C)(O)C(Cl)(Cl)Cl | inactive: 2.81
16 | CNCCNS(=O)(=O)c1cccc2cnccc12.Cl.Cl [H-8 dihydrochloride] | inactive: 2.7
17 | CN1[C@H]2C[C@H](OC(=O)[C@H](CO)c3ccccc3)C[C@@H]1[C@@H](O)C2 (racemic) [(+/-)-Anisodamine] | inactive: 2.46
18 | CC(=O)Oc1ccc2c(C)cc(=O)oc2c1 | inactive: 2.04
19 | Nc1ccn(C2O[C@H](CO)[C@@H](O)[C@H]2O)c(=O)n1 (stereo not given in full) | inactive: 2.59
20 | O=C(O)CCCN1CCC(O[C@@H](c2ccc(Cl)cc2)c2ccccn2)CC1.O=S(=O)(O)c1ccccc1 [Bepotastine Besilate] | inactive: 1.28

Quoted from above (2 entries):
Row | Compound | cell-cell fusion (z-score)
11 | CCOc1cc(C=O)ccc1O | inactive: -0.0994
12 | CC1(C)O[C@@H]2CC3C4CCC5=CC(=O)C=C[C@]5(C)[C@@]4(F)[C@@H](O)C[C@]3(C)[C@]2(C(=O)CO)O1 (stereo not given in full) | inactive: -0.992
